Percent effect of library compounds

By UniProt entry, the sequences of proteins in these tests, tags left out. Residues count along the entry.
UniProt P9WFT3, whole entry: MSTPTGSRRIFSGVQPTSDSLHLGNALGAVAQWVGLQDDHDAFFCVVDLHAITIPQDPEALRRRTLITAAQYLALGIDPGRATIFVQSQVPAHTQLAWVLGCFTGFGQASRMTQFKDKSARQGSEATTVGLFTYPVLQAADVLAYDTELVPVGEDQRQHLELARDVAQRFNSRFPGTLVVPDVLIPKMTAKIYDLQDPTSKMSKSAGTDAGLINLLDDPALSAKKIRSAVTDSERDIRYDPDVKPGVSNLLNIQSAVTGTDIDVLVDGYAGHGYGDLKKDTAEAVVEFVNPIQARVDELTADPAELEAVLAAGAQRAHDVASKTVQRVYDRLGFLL
UniProt Q8IDJ8, 1-583: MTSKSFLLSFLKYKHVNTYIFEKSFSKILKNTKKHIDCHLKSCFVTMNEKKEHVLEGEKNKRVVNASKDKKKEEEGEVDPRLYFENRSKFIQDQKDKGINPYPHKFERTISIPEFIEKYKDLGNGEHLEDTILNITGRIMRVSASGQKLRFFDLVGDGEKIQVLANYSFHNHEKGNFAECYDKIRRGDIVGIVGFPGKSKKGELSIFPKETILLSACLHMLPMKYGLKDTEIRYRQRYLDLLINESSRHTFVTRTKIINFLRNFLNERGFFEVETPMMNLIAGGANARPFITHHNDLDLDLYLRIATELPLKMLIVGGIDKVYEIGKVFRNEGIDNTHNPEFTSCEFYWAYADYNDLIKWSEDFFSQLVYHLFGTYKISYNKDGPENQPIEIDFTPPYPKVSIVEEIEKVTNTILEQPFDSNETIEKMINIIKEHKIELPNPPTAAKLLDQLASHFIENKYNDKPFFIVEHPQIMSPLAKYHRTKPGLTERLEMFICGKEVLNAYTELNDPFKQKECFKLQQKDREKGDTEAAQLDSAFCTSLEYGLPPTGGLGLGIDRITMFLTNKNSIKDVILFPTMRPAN
UniProt P9WPC5, whole entry: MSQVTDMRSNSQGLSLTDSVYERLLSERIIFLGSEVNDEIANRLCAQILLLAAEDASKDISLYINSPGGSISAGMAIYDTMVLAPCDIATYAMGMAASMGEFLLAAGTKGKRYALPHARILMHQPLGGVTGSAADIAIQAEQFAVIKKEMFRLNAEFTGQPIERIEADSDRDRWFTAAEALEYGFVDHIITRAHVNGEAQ
UniProt P9WPC3, whole entry partner: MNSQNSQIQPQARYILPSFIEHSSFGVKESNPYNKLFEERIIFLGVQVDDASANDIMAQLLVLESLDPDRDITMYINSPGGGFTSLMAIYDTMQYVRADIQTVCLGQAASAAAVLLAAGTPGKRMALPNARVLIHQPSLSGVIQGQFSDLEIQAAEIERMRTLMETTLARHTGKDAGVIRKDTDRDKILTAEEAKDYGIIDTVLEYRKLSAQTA

Measurements from “University of Dundee, Small-Polar-MMV Screening Library” (2021), ChEMBL document CHEMBL3988442.

A: 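Enzyme assay of tryptophanyl-tRNA synthetase; the read-out is not stated. Target: Tryptophan-tRNA ligase, Mycobacterium tuberculosis (UniProt P9WFT3). Tested at 10 µM. Higher most likely means stronger inhibition; the record gives no direction and few retests gave an IC50. Of about 65,000 compounds tested this way, about 64 (0.098%) reached 50% or more in at least one test.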
B: 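Lysine-tRNA ligase, Plasmodium falciparum 3D7 (UniProt Q8IDJ8). Enzyme assay of the cytosolic lysyl-tRNA synthetase in 384-well plates, read by luminescence. Compounds at 30 µM. Direction is inferred from only a few compounds that gave an IC50; most scored high, so higher reads as stronger inhibition. Of about 69,000 compounds tested this way, about 49 (0.071%) reached 50% or more in at least one test.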
C: 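ClpP1P2, Mycobacterium tuberculosis (UniProt P9WPC5 and UniProt P9WPC3). Protease assay of ClpP1P2, read by the AMC dye that it sets free. Concentration: 50 µM. Direction is inferred from only a few compounds that gave an IC50; most scored high, so higher reads as stronger inhibition. Most other retested compounds had strongly negative values. Of about 69,000 compounds tested this way, about 10 (0.015%) reached 50% or more in at least one test.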

The filed quantity is “Percent Effect” (%). The record does not define 0% and 100%; most values in the screen are far below 50% and negative numbers occur (in some assays of this library far below -100). Compounds were drawn at random from those tested, without regard to their results. A dash means the value is not listed here; it may have been measured.

| SMILES | A | B | C |
|---|---|---|---|
| `Cc1occc1C(=O)N1CCCC2(CCN(c3ccsc3)C2=O)C1` (centres unmarked) | -0.834 | 1.086 | -8.396 |
| `O=C(NCCc1cnccn1)c1ccc(S(=O)(=O)NC2CCC2)cc1` | 0.122 | 2.854 | 6.183 |
| `Cc1nc(N2CCN(C(=O)NCc3cscn3)CC2)sc1C` | -0.1937 | 4.141 | -11.45 |
| `COc1ccc2cc(C(=O)N3CCCC(n4ccnc4C)C3)[nH]c2c1` (centres unmarked) | -7.908 | 0.3946 | -5.742 |
| `Cc1noc(C)c1CNCc1nn(-c2ccccc2)c2c1CCC2` | -0.9082 | -0.4924 | 2.431 |
| `CCOc1ccc(C(F)(F)F)cc1NC(=O)NCc1noc(C)n1` | 2.688 | 8.405 | -6.155 |
| `c1cnc(N2Cc3nccn3CC(COc3cccnc3)C2)nc1` (centres unmarked) | -1.684 | -2.123 | -18.18 |
| `CCS(=O)(=O)N1CCC2(CC(=O)N(c3ccccc3C)C2)C1` (centres unmarked) | 3.779 | 2.023 | 18.27 |
| `O=c1[nH]nc2c(S(=O)(=O)N3CCCCCC3)cccn12` | 3.099 | 5.922 | 9.789 |
| `CN(C)CC1CN(c2ccc(C#N)cn2)CCO1` (centres unmarked) | 2.047 | -0.09575 | 4.771 |
| `CC(NCc1ccc(OCC(N)=O)cc1)c1ccc(Cl)cc1Cl` (centres unmarked) | 0.3127 | 4.35 | -8.555 |
| `CCOCC1COCCC12CCN(C(=O)C1=CCCCC1)CC2` (centres unmarked) | -2.05 | 4.157 | -5.555 |
| `CN(Cc1cccnc1)[C@@H]1CN(C(=O)c2ccco2)[C@@H]2CCCO[C@H]12` | - | 0.8515 | 0.2523 |
| `Cn1cc(CN2CCCC3(COCCN(c4cccnc4)C3)C2)cn1` (centres unmarked) | 2.815 | 1.03 | 0.9934 |
| `COCC(=O)NCC1Cn2nnc(-c3ccncc3)c2CO1` (centres unmarked) | -2.196 | 3.966 | 0.2273 |
| `COCCCN1CC2(CCCN(c3ncc4nc[nH]c4n3)C2)CCC1=O` (centres unmarked) | -0.8642 | 1.158 | -11.05 |
| `Cc1nc(CN(C)CC2CCCN(CCc3ccc(Cl)cc3)C2)n(C)n1` (centres unmarked) | 0.4575 | 1.925 | -9.841 |
| `CCOC(=O)Cn1ccc(O)c(Cc2ccc(Cl)cc2Cl)c1=O` | -2.287 | 3.458 | -10.29 |
| `OC1(CN2CCC(Oc3cccc(C(F)(F)F)c3)CC2)CCNC1` (centres unmarked) | -6.089 | 0.5201 | 0.09899 |
| `NC(=O)C1CN(c2ccc(Br)cn2)CCO1` (centres unmarked) | 2.571 | 1.307 | -13.02 |
| `Cn1nc(C#N)c2c1CN(C(=O)c1c[nH]cn1)CCC2` | -4.661 | 2.605 | 12.72 |
| `Cc1cc(C(F)(F)F)nc(CNC(=O)CCn2cccn2)n1` | 2.877 | 2.463 | -11.67 |
| `CC(=O)N1CCC(NC(=O)c2ccccc2-n2cnnn2)CC1` | 0 | 3.116 | 5.494 |
| `Cc1ccccc1SC1CCN(C(=O)C2CNCC(=O)N2)CC1` (centres unmarked) | -2.918 | 2.416 | 1.598 |
| `COC(=O)C(C)CN(C)S(=O)(=O)c1c(Br)cc2[nH]c(=O)oc2c1Cl` (centres unmarked) | -2.601 | 8.535 | -2.302 |
| `N#CCCN(Cc1ccco1)C(=O)CCCNC(=O)c1ccccc1` | -0.06915 | 0.2424 | -14.32 |
| `NC(=O)NCC1CCCCN1C(=O)c1ccc(Br)s1` (centres unmarked) | -1.685 | 6.477 | -0.9072 |
| `O=C(NCc1ccc2c(c1)OCO2)c1ccccc1C1CCNC1` (centres unmarked) | 0.9517 | 2.506 | 7.274 |
| `COc1ccc2c(C)c(C(=O)NC3CCOCC3)oc2c1` | 3.749 | 0.3453 | -1.44 |
| `c1cnc(N2CCO[C@H]3[C@H](OCc4cccnc4)CC[C@@H]32)nc1` | -2.261 | -0.4357 | 11.02 |
| `CS(=O)(=O)CCC(=O)NC1CC(c2ccccc2Cl)C1` (centres unmarked) | 0.3276 | 2.286 | 2.517 |
| `CC(C(=O)NCC1CCN(c2ccncc2)CC1)S(C)(=O)=O` (centres unmarked) | 0.9492 | 3.706 | -4.997 |
| `CC(C)NC(=O)C1CN(C(=O)Cc2cccc(F)c2)CC12CCOCC2` (centres unmarked) | 1.66 | 6.841 | 10.57 |
| `COc1ccc(Cl)cc1-c1cc(NC(=O)CNC(=O)C2CC2)[nH]n1` | -8.066 | 7.773 | -4.516 |
| `CSC(C)C(=O)NS(=O)(=O)c1ccc(F)c(C(F)(F)F)c1` (centres unmarked) | 24.9 | -4.845 | -0.1008 |
| `Cc1ccccc1CSc1nc(N)cc(N2C[C@H](O)[C@@H](N(C)C)C2)n1` | 4.191 | -2.256 | -4.171 |
| `O=C(CNC(=O)c1ccccc1F)NCc1ccccn1` | -2.78 | 3.407 | -10.57 |
| `c1ccc(Cn2cncn2)c(CNCC2CNc3ccnn3C2)c1` (centres unmarked) | -2.318 | 2.377 | 12.69 |
| `Cc1cccc(CN2CCc3cc(C(=O)O)c(N(C)C)nc3CC2)n1` | -6.294 | -1.061 | -18.84 |
| `Fc1ccc(CN2CCC(c3n[nH]c4nccnc34)CC2)cc1F` | -2.09 | 2.48 | 14.39 |
| `CC1CN(C(=O)CN(Cc2ccccc2Br)C2CC2)CCO1` (centres unmarked) | -5.082 | 1.797 | -5.418 |
| `CC(C)=CCN1C[C@@H]2CN(C(=O)c3ccc(CO)cc3)C[C@]2(C(=O)O)C1` | 1.952 | 2.408 | -3.257 |
| `O=C(NC1CCCN(CCc2ccccc2)C1)c1ccccn1` (centres unmarked) | 6.75 | 4.942 | -7.993 |
| `Cc1ccc(CNC(=O)c2oc3ccccc3c2CN(C)C)n1C` | -3.625 | 0.1604 | 3.925 |
| `COc1ccc(OC)c2c(C)cc(N(C)CCCO)nc12` | 2.015 | 2.831 | -11.6 |
| `Cc1cnn(C2CCCN(C(=O)c3cc(-c4ccccc4C)n[nH]3)C2)c1` (centres unmarked) | 2.397 | 4.847 | -4.292 |
| `CC(C(=O)NCC1(c2cccc(Br)c2)CCC1)S(C)(=O)=O` (centres unmarked) | 0.3112 | 9.862 | 9.868 |
| `COc1ccc(-c2n[nH]cc2CN(C)Cc2nccn2C)c(F)c1` | 0.273 | 6.81 | -10.45 |
| `CS(=O)(=O)N1CC[C@]2(O)CCN(CCCC(=O)c3ccccc3)C[C@@H]2C1` | 5.433 | 5.295 | -9.5 |
| `O=C(NCc1cc2n(n1)CCCNC2)C1(c2ccc(Cl)cc2)CCC1` | -0.8942 | 5.493 | 6.076 |

Once more, the final 6:

SMILES,A,B,C
COc1ccc(OC)c2c(C)cc(N(C)CCCO)nc12,2.015,2.831,-11.6
Cc1cnn(C2CCCN(C(=O)c3cc(-c4ccccc4C)n[nH]3)C2)c1 (centres unmarked),2.397,4.847,-4.292
CC(C(=O)NCC1(c2cccc(Br)c2)CCC1)S(C)(=O)=O (centres unmarked),0.3112,9.862,9.868
COc1ccc(-c2n[nH]cc2CN(C)Cc2nccn2C)c(F)c1,0.273,6.81,-10.45
CS(=O)(=O)N1CC[C@]2(O)CCN(CCCC(=O)c3ccccc3)C[C@@H]2C1,5.433,5.295,-9.5
O=C(NCc1cc2n(n1)CCCNC2)C1(c2ccc(Cl)cc2)CCC1,-0.8942,5.493,6.076